According to paper PMC3912138:
Residue numbers refer to the chain shown, from its start. These are yes or no findings as the source states them, for the method shown. In cells and extracts the contact can be indirect. Some entries that bind do so weakly or less than the wild type. Tags and fused reporters may be left off the sequences shown.

Protein sequences, listed by entry. Tags and fused reporters are not part of them.
UniProt P55884: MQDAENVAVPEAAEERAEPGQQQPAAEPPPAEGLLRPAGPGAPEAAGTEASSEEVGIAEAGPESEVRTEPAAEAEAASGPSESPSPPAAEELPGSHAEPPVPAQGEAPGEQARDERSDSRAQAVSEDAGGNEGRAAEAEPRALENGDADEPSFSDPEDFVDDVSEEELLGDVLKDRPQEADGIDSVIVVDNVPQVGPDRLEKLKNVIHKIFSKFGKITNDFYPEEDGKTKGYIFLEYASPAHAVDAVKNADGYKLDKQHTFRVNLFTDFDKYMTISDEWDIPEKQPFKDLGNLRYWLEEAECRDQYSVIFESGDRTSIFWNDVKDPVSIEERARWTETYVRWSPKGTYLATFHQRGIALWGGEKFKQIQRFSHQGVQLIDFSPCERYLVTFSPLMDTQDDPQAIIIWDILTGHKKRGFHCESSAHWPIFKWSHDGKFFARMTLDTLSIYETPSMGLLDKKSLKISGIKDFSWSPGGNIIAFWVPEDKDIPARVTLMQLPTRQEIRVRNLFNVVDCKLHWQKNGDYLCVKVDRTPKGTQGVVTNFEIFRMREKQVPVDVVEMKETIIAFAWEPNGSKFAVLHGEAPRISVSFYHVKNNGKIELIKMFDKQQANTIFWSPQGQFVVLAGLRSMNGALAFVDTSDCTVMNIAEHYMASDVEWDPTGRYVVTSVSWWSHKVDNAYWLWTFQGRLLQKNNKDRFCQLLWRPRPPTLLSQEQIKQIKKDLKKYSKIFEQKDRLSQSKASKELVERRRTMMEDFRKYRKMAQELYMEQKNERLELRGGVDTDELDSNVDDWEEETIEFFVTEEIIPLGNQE

Assays:
[1] = molecular target: T1, CERKL-Flag (CERKLa, full length CERKL isoform of 532 amino acids, wild type) (human) (UniProt Q49MI3); test: co-IP; Flag immunoprecipitation (anti-Flag M2 affinity beads) from a cytoskeletal fraction isolated from HEK-293T cells transfected with CERKL-WT; fractions treated with 15 mM EDTA or 100 µg/ml RNase A at 150, 450 and 600 mM NaCl; Western blot
T1 sequence: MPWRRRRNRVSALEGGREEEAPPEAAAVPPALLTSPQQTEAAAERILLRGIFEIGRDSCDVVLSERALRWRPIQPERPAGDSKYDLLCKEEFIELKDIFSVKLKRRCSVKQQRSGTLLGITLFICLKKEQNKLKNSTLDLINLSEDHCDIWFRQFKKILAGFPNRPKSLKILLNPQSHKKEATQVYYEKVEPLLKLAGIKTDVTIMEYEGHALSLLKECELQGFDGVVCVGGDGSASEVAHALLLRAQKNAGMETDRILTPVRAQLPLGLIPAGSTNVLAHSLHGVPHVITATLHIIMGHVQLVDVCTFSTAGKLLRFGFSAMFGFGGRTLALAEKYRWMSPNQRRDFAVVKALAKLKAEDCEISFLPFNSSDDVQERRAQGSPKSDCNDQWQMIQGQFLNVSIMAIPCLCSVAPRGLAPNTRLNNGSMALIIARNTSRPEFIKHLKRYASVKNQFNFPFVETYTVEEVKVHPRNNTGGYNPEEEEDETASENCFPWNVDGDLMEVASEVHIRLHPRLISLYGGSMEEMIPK

[2] = molecular target: T1, CERKL-Flag (CERKLa, full length CERKL isoform of 532 amino acids, wild type) (human); test: co-IP; Flag immunoprecipitation (M2 Flag beads, 1 h, 4°C; lysis buffer 1% Triton X-100, 150 mM NaCl, 20 mM Tris pH 7.4) from lysates of transfected HEK 293T cells, Western blot of endogenous partners; in some panels cells treated with cycloheximide or colchicine, and lysates treated or not with RNase A (100 µg/mL) at 150, 450 or 600 mM NaCl
[3] = molecular target: T2, CERKL-C125W-Flag (pathological point mutant of CERKLa) (human) (UniProt Q49MI3); test: as above
T2 sequence: T1 sequence with C125W

- binding [1]: binds
- binding [2]: binds
- binding [3]: no binding
Substance: eIF3B (translation initiation factor eIF3B) (from UniProt P55884 1-814)
